Columns and labels:
[1] = general procedure: Fmoc solid-phase peptide synthesis; 2-chlorotrityl chloride resin; conditions: late stage modification step
[2] = general procedure: Fmoc solid-phase peptide synthesis; aa155-resin; conditions: whole synthesis

Substance	step yield [1]	also measured
(3S,9S,18S,21S,25S,28S,34S,36S)-3-[2-[3-chloro-4-(trifluoromethyl)phenyl]ethyl]-28-cyclohexyl-9-(cyclohexylmethyl)-36-(2-hydroxyethoxy)-21-isobutyl-7,10,13,16,22,26,29-heptamethyl-18-[(1S)-1-methylpropyl]-25-(piperidine-1-carbonyl)spiro	54%	–
(3S,9S,18S,21S,25S,28S,34S,36R)-3-[2-[3-chloro-4-(trifluoromethyl)phenyl]ethyl]-9-(cyclopentylmethyl)-21-isobutyl-28-isopropyl-7,10,13,16,22,26,29-heptamethyl-18-[(1S)-1-methylpropyl]-25-(piperidine-1-carbonyl)-36-(triazol-1-yl)spiro	–	step yield ([1]; through two steps): 84% through two steps
(3S,9S,18S,24R,27S,33S)-18,27-bis[(2S)-butan-2-yl]-3-[2-[3-chloro-4-(trifluoromethyl)phenyl]ethyl]-N,N,7,10,13,16,25,28-octamethyl-9-[(4-methylphenyl)methyl]-2,5,8,11,14,17,20,26,29,32-decaoxospiro[22-thia-1,4,7,10,13,16,19,25,28,31-decazabicyclo[31.3.0]hexatriacontane-30,1′-cyclopentane]-24-carboxamide	–	isolated yield [2]: 3%
(3S,9S,18S,21S,25S,28S,34S)-3-[2-(4-chlorophenoxy)ethyl]-28-cyclohexyl-9-(cyclohexylmethyl)-7,10,13,16,21,22,26,29-octamethyl-18-[(1S)-1-methylpropyl]-25-(piperidine-1-carbonyl)spiro	22%	–
(1S,7S,10S,14S,17S,26S,32S)-32-[(3-iodophenyl)methyl]-7,14-diisobutyl-3,4,4,9,13,19,22,25,28-nonamethyl-17-[(1S)-1-methylpropyl]-10-(piperidine-1-carbonyl)-3,6,9,13,16,19,22,25,28,31,34-undecazabicyclo[24.8.6]tetracontane-2,5,8,12,15,18,21,24,27,30,33-undecone	69%	–
(3S,9S,18S,21S,25S,28S,34S)-28-cyclohexyl-9-(cyclohexylmethyl)-7,10,13,16,21,22,26,29-octamethyl-18-[(1S)-1-methylpropyl]-25-(piperidine-1-carbonyl)-3-[2-(3,4,5-trichlorophenyl)ethyl]spiro	47%	–
(3S,9S,18S,21S,25R,28S,34S,36R)-36-benzyloxy-9-(cyclohexylmethyl)-3-[2-[3-fluoro-4-(trifluoromethyl)phenyl]ethyl]-21,28-diisobutyl-7,10,13,16,22,25,29-heptamethyl-18-[(1S)-1-methylpropyl]	70%	–
(3S,9S,18S,21S,25S,28S,34S)-28-cyclohexyl-9-(cyclohexylmethyl)-3-[2-(3,4-dichlorophenoxy)ethyl]-7,10,13,16,21,22,26,29-octamethyl-18-[(1S)-1-methylpropyl]-25-(piperidine-1-carbonyl)spiro	7.5%	–
(3S,9S,18S,21S,25S,28S,34S)-3-[(4-chlorophenoxy)methyl]-28-cyclohexyl-9-(cyclohexylmethyl)-7,10,13,16,21,22,26,29-octamethyl-18-[(1S)-1-methylpropyl]-25-(piperidine-1-carbonyl)spiro	16%	–
(6S,9S,13S,16S,22S,25S,31S,34S)-25-[(3-iodophenyl)methyl]-9,16-diisobutyl-4,10,14,19,19,20,29,32-octamethyl-6-[(1S)-1-methylpropyl]-22-(phenoxymethyl)-13-(piperidine-1-carbonyl)-31-(p-tolylmethyl)-1,4,7,10,14,17,20,23,26,29,32-undecazabicyclo	29%	–
(3S,9S,18S,21S,25S,28S,31S,34S)-31-benzyl-9-[(4-chlorophenyl)methyl]-3-[2-[2-fluoro-4-(trifluoromethyl)phenyl]ethyl]-28-isobutyl-7,10,13,16,21,22,29,32-octamethyl-18-[(1S)-1-methylpropyl]-25-(pyrrolidine-1-carbonyl)-1,4,7,10,13,16,19,22,26,29,32-undecazabicyclo	71%	–
(5S,8S,11S,15S,18S,23aS,29S,35S,37aS)-8-((S)-sec-butyl)-35-(cyclohexylmethyl)-18-cyclopentyl-29-(4-(difluoromethyl)-3-fluorophenethyl)-11-isobutyl-5,6,12,16,19,33,36-heptamethyl-15-(piperidin-1-carbonyl)docosahydro-2H,4H-spiro	42.7%	–
(3S,9S,18S,21S,25S,28S,34S)-9-(cyclohexylmethyl)-28-isopropyl-7,10,13,16,21,22,26,29-octamethyl-18-[(1S)-1-methylpropyl]-25-(piperidine-1-carbonyl)-3-[2-(3,4,5-trichlorophenyl)ethyl]spiro	33%	–
(3S,9S,18S,21S,25S,28S,34S)-28-cyclohexyl-9-(cyclohexylmethyl)-7,10,13,16,21,22,26,29-octamethyl-18-[(1S)-1-methylpropyl]-25-(piperidine-1-carbonyl)-3-[2-[4-(trifluoromethyl)phenoxy]ethyl]spiro	13%	–
(3S,9S,18S,21S,25S,28S,34S,36R)-3-[2-[3-chloro-4-(trifluoromethyl)phenyl]ethyl]-28-cyclohexyl-9-(cyclohexylmethyl)-36-(2-hydroxyethoxy)-21-isobutyl-7,10,13,16,22,26,29-heptamethyl-18-[(1S)-1-methylpropyl]-25-(piperidine-1-carbonyl)spiro	44%	–

From patent US12371454B2 (priority 2019, dated 2025)
